The values below come from paper PMC8630191.

Protein sequences, listed by entry. Tags and fused reporters are not part of them.
UniProt P62714: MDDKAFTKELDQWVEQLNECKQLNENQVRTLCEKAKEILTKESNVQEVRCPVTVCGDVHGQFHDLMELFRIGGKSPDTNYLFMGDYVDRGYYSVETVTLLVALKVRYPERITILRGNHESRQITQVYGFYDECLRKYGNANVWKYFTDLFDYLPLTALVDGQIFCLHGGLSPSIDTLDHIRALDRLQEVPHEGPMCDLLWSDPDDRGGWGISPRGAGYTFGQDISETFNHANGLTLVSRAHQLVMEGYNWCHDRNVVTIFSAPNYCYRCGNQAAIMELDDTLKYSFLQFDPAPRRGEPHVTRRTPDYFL
UniProt P30154: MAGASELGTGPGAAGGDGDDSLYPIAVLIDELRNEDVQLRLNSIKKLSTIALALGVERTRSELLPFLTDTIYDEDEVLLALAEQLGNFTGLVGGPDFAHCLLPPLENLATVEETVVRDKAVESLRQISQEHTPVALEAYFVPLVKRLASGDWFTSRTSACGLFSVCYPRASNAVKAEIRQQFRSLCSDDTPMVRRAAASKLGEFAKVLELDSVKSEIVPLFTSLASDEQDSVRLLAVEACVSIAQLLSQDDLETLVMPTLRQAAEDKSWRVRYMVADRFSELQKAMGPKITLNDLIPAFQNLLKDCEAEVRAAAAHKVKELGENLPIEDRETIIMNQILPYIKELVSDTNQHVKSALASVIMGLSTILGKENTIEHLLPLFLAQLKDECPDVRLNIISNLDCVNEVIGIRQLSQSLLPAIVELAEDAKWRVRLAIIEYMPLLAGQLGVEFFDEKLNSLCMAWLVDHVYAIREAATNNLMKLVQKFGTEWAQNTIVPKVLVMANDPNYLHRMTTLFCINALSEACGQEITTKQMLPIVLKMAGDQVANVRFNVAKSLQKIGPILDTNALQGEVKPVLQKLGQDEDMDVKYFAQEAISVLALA
UniProt Q5MIZ7: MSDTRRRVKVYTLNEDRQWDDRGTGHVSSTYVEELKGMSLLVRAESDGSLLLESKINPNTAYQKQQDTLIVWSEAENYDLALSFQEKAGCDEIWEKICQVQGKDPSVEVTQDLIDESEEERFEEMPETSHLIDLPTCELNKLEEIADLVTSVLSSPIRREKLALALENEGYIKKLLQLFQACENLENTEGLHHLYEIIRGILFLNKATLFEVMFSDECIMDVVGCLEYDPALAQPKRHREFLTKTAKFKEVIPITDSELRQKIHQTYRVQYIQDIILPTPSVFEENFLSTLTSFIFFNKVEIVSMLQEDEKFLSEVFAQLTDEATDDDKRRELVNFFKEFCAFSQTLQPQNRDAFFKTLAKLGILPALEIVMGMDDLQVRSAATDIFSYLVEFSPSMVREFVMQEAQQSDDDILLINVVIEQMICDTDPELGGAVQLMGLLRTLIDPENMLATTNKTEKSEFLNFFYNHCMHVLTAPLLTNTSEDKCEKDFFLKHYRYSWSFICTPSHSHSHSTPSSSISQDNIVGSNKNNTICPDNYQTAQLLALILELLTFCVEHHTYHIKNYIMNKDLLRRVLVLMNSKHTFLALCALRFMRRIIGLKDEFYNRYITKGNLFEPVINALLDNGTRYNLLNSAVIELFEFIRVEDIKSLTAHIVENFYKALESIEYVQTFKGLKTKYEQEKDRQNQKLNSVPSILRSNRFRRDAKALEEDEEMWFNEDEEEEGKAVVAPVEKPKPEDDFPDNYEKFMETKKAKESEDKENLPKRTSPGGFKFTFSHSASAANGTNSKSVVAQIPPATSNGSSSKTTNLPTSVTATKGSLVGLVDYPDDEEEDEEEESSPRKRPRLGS
UniProt P30153: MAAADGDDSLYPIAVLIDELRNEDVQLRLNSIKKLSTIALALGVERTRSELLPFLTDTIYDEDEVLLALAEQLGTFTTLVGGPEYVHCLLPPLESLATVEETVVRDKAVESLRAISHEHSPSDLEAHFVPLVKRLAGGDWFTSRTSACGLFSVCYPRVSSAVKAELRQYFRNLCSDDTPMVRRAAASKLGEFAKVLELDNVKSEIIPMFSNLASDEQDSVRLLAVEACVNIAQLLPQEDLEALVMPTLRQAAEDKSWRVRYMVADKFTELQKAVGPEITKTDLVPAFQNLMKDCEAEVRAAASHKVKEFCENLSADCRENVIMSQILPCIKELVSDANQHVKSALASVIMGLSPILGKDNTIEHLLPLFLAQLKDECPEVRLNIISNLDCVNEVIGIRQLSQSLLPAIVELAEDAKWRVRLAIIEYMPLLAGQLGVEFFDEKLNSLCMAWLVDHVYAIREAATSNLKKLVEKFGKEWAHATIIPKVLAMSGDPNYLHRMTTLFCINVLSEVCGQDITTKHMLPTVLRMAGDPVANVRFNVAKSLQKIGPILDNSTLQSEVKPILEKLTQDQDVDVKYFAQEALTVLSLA
UniProt Q15172: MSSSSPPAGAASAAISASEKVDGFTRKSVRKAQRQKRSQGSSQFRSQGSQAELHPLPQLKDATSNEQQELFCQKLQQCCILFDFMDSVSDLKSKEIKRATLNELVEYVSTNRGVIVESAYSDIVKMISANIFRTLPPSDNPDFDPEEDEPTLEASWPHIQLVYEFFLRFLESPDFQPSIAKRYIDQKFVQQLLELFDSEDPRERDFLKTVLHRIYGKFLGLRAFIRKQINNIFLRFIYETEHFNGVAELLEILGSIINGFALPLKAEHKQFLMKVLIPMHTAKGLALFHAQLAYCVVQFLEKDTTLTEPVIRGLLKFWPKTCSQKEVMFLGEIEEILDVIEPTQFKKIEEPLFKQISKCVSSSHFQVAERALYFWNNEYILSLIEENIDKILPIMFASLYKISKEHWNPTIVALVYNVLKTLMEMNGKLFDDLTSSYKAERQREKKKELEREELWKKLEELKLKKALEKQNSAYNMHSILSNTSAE

Results are given in words; binding and its absence hold for the method and conditions named. Binding seen in cells or lysates may run through a third protein. Here binding means that the protein was enriched with, or labelled near, the bait; the list need not be complete. For some assays here: Sequences can lack the tags named with a protein.

Assay in all cases: affinity purification with mass spectrometry; 3xFLAG-tagged catalytic subunit (WT or ΔL) transfected in FreeStyle 293F cells; FLAG M2 affinity gel, 3 h at 4 °C; lysis and wash buffer 50 mM Tris pH 7.5, 500 mM NaCl, 0.5% Triton X-100; eluted with 3XFLAG peptide; label-free quantitative LC-MS/MS on unique peptides, three replicates
The target of experiment [1] is 3xFLAG-tagged PP2Acβ, wild type (human) (UniProt P62714).
Experiment [2] has as its target T1, 3xFLAG-tagged PP4c, wild type (human) (UniProt P60510).
T1 sequence: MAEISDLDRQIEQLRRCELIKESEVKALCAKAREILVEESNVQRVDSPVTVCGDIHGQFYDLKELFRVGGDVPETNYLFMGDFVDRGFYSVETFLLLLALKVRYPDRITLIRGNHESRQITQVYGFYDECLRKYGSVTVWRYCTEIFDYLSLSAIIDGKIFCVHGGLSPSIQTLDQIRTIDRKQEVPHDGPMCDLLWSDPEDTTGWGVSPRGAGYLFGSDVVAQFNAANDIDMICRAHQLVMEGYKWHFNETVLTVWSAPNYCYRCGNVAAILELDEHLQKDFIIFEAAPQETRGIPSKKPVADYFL

Experiment [3] has as its target T2, 3xFLAG-tagged PP4c ΔL mutant (Leu 307 deleted) (human) (UniProt P60510).
T2 sequence: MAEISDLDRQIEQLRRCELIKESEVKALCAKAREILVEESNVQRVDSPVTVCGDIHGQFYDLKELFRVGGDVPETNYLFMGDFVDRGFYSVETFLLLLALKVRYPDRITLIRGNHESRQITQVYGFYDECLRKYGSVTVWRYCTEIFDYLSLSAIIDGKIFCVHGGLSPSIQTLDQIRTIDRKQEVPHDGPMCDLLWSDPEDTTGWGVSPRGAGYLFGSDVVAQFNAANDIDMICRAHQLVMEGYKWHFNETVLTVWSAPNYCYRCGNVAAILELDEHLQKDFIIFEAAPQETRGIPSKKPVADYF

As for “PR65β, PP2A scaffolding (A) subunit (from UniProt P30154 1-601)”, the binding entry in experiment [1] is recorded as “binds”. On to “PP4R3β, PP4 regulatory subunit (from UniProt Q5MIZ7 1-849)”, for which the binding entry in experiment [2] and in experiment [3] was “binds” in each case. Regarding “PR65α, PP2A scaffolding (A) subunit (from UniProt P30153 1-589)”, in experiment [1], the binding entry is on record as “binds”. Turning to “B56α, PP2A regulatory subunit (from UniProt Q15172 1-486)”, the binding result in experiment [1] was “binds”.
